# Cleaved PARP in drug-treated melanoma cells

Data from the primary screen of doi:10.1371/journal.pone.0140310, rounded.

Compounds and concentrations:
BI-78D3, 1 µM: O=c1[nH]nc(Sc2ncc([N+](=O)[O-])s2)n1-c1ccc2c(c1)OCCO2
ruxolitinib, 5 µM: N#CC[C@H](C1CCCC1)n1cc(-c2ncnc3[nH]ccc23)cn1
PF-562271, 0.4 µM: CN(c1ncccc1CNc1nc(Nc2ccc3c(c2)CC(=O)N3)ncc1C(F)(F)F)S(C)(=O)=O
etoposide, 0.1 µM: COc1cc([C@@H]2c3cc4c(cc3[C@@H](O[C@@H]3O[C@@H]5CO[C@@H](C)O[C@H]5[C@H](O)[C@H]3O)[C@H]3COC(=O)[C@H]23)OCO4)cc(OC)c1O
fludarabine, 1 µM: Nc1nc(F)nc2c1ncn2[C@@H]1O[C@H](CO)[C@@H](O)[C@@H]1O
tanespimycin, 0.01 µM: C=CCNC1=C2C[C@@H](C)C[C@H](OC)[C@H](O)[C@@H](C)/C=C(\C)[C@H](OC(N)=O)[C@@H](OC)/C=C\C=C(/C)C(=O)NC(=CC1=O)C2=O
GW441756, 2 µM: Cn1cc(/C=C2\C(=O)Nc3cccnc32)c2ccccc21
GW9662, 10 µM: O=C(Nc1ccccc1)c1cc([N+](=O)[O-])ccc1Cl

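The test systems are human melanoma cell lines, treated with two drugs together for 72 h and then stained and imaged. The read-out is the fraction of cleaved-PARP-positive nuclei, in % of that fraction in the DMSO control; 200 means twice the control level of this apoptosis marker. Concentrations were fixed for each drug; these are the higher of two levels. These are primary screening values without error estimates. Basal and induced levels differ widely between cell lines.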
An unselected part of the screen is shown.
A dash means that no value is listed here.

Combination,RPMI-7951,RVH-421,SK-MEL-30,LB2518-MEL,UACC-62,IPC-298
GW9662 + ruxolitinib,286,148,147,-,152,47.6
BI-78D3 + ruxolitinib,204,27.2,29.9,216,83.8,51.8
GW441756 + ruxolitinib,96.3,122,21.5,78.6,62.9,48.0
BI-78D3 + GW9662,58.1,64.5,238,97.1,362,110
PF-562271 + GW9662,93.8,90.6,100,129,262,45.0
fludarabine + GW441756,164,46.7,516,154,132,54.4
etoposide + ruxolitinib,43.7,303,64.6,118,30.0,118
PF-562271 + etoposide,162,151,73.0,51.8,404,145
PF-562271 + tanespimycin,947,47.6,125,124,281,52.9
etoposide + fludarabine,99.7,129,2050,234,157,182
BI-78D3 + GW441756,305,59.7,104,277,81.0,196
GW441756 + PF-562271,181,116,121,35.4,290,46.1
ruxolitinib + PF-562271,286,126,89.6,198,240,113
etoposide + GW9662,68.0,110,329,158,244,335
fludarabine + PF-562271,595,113,1480,47.4,232,43.5
tanespimycin + fludarabine,374,113,1340,129,216,87.7
ruxolitinib + tanespimycin,361,206,54.6,184,238,65.8
tanespimycin + GW441756,565,161,61.5,132,280,46.9
BI-78D3 + PF-562271,122,276,66.5,70.2,173,46.5
tanespimycin + GW9662,765,118,152,41.2,283,89.3
BI-78D3 + fludarabine,139,177,1820,-,118,146
etoposide + tanespimycin,158,47.7,103,243,331,129

Repeated from the top, 3 entries:

Combination	RPMI-7951	RVH-421	SK-MEL-30	LB2518-MEL	UACC-62	IPC-298
GW9662 + ruxolitinib	286	148	147	-	152	47.6
BI-78D3 + ruxolitinib	204	27.2	29.9	216	83.8	51.8
GW441756 + ruxolitinib	96.3	122	21.5	78.6	62.9	48.0